Source: PubChem BioAssay AID602196 (INSERM, 2012)
The whole screen tested about 23,000 reagents; below is a random part of them. In the full data, 455 (2%) are marked active. 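Active includes both protection and sensitisation; some change values fall well beyond the stated -50 to +50 range.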 Further read-outs or replicates are left out here. No sequences are given here. Not given: the amount of reagent.

- Assay: 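Knock-downs that protect lung cancer cells from cisplatin or sensitise them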
- Cell system: human A549 lung cancer cells
- Reagents: siRNA pair against human genes
- Duration: 48 h transfection before cisplatin; time from cisplatin to read-out not stated
- Challenge: cisplatin at a dose killing half of control-siRNA cells; exact dose and duration not given
- Read-out: 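Shift in cisplatin death relative to control siRNA, from -50 (all cells die) to +50 (no cells die); siRNAs harmful on their own scored 0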
- Direction: two-siRNA summed score (-2 to +2): higher = both siRNAs protect from cisplatin killing; -2 means both sensitise; mean protection from cisplatin (shift in death): higher = protection from cisplatin killing
- Hit rule: 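Each siRNA scores 0 if harmful alone by LDH or WST-1, otherwise +1 if it reduces and -1 if it increases cisplatin killing; a gene is active when both siRNAs agree (sum +2 or -2)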
- Meaning of the calls: active = both siRNAs shift cisplatin killing the same way; inactive = no consistent shift, or siRNA harmful alone

{"gene symbol": "ANKRD13D", "two-siRNA summed score (-2 to +2)": 0, "mean protection from cisplatin (shift in death) (%)": 4.9, "activity call": "inactive"}
{"gene symbol": "DFFA", "two-siRNA summed score (-2 to +2)": 1, "mean protection from cisplatin (shift in death) (%)": 8, "activity call": "inactive"}
{"gene symbol": "LINC00614", "two-siRNA summed score (-2 to +2)": 0, "mean protection from cisplatin (shift in death) (%)": -2.4, "activity call": "inactive"}
{"gene symbol": "ZP3", "two-siRNA summed score (-2 to +2)": 0, "mean protection from cisplatin (shift in death) (%)": 6.5, "activity call": "inactive"}
{"gene symbol": "AOAH", "two-siRNA summed score (-2 to +2)": 1, "mean protection from cisplatin (shift in death) (%)": 24.1, "activity call": "inactive"}
{"gene symbol": "ZNF431", "two-siRNA summed score (-2 to +2)": 0, "mean protection from cisplatin (shift in death) (%)": 10.1, "activity call": "inactive"}
{"gene symbol": "FAT4", "two-siRNA summed score (-2 to +2)": 0, "mean protection from cisplatin (shift in death) (%)": -6.3, "activity call": "inactive"}
{"gene symbol": "LOC440275", "two-siRNA summed score (-2 to +2)": 0, "mean protection from cisplatin (shift in death) (%)": 11.7, "activity call": "inactive"}
{"gene symbol": "PAQR9", "two-siRNA summed score (-2 to +2)": 0, "mean protection from cisplatin (shift in death) (%)": -7.6, "activity call": "inactive"}
{"gene symbol": "OPCML", "two-siRNA summed score (-2 to +2)": 1, "mean protection from cisplatin (shift in death) (%)": 0.4, "activity call": "inactive"}
{"gene symbol": "OR10A2", "two-siRNA summed score (-2 to +2)": -2, "mean protection from cisplatin (shift in death) (%)": -16, "activity call": "active"}
{"gene symbol": "GRAP", "two-siRNA summed score (-2 to +2)": 0, "mean protection from cisplatin (shift in death) (%)": 25, "activity call": "inactive"}
{"gene symbol": "RAVER2", "two-siRNA summed score (-2 to +2)": -1, "mean protection from cisplatin (shift in death) (%)": -17.1, "activity call": "inactive"}
{"gene symbol": "EPB41L3", "two-siRNA summed score (-2 to +2)": 0, "mean protection from cisplatin (shift in death) (%)": 13.1, "activity call": "inactive"}
{"gene symbol": "LOC149643", "two-siRNA summed score (-2 to +2)": 0, "mean protection from cisplatin (shift in death) (%)": 6.8, "activity call": "inactive"}
{"gene symbol": "LOC441622", "two-siRNA summed score (-2 to +2)": 0, "mean protection from cisplatin (shift in death) (%)": 13.1, "activity call": "inactive"}
{"gene symbol": "SPN", "two-siRNA summed score (-2 to +2)": 0, "mean protection from cisplatin (shift in death) (%)": -4.3, "activity call": "inactive"}
{"gene symbol": "USPL1", "two-siRNA summed score (-2 to +2)": 0, "mean protection from cisplatin (shift in death) (%)": 9.8, "activity call": "inactive"}
{"gene symbol": "FABP3", "two-siRNA summed score (-2 to +2)": 0, "mean protection from cisplatin (shift in death) (%)": -0.7, "activity call": "inactive"}
{"gene symbol": "HTR1D", "two-siRNA summed score (-2 to +2)": 0, "mean protection from cisplatin (shift in death) (%)": -3.2, "activity call": "inactive"}
{"gene symbol": "MFAP3", "two-siRNA summed score (-2 to +2)": 1, "mean protection from cisplatin (shift in death) (%)": 16.2, "activity call": "inactive"}
{"gene symbol": "LOC113386", "two-siRNA summed score (-2 to +2)": 0, "mean protection from cisplatin (shift in death) (%)": -8.2, "activity call": "inactive"}
{"gene symbol": "PTCHD3P1", "two-siRNA summed score (-2 to +2)": 0, "mean protection from cisplatin (shift in death) (%)": 0.8, "activity call": "inactive"}
{"gene symbol": "SPANXD", "two-siRNA summed score (-2 to +2)": -1, "mean protection from cisplatin (shift in death) (%)": -2, "activity call": "inactive"}
{"gene symbol": "FRG2DP", "two-siRNA summed score (-2 to +2)": 0, "mean protection from cisplatin (shift in death) (%)": 7.8, "activity call": "inactive"}
{"gene symbol": "C15orf32", "two-siRNA summed score (-2 to +2)": 0, "mean protection from cisplatin (shift in death) (%)": 5.7, "activity call": "inactive"}
{"gene symbol": "SPRR1A", "two-siRNA summed score (-2 to +2)": 0, "mean protection from cisplatin (shift in death) (%)": -1.1, "activity call": "inactive"}
{"gene symbol": "GRIN3A", "two-siRNA summed score (-2 to +2)": 0, "mean protection from cisplatin (shift in death) (%)": 14, "activity call": "inactive"}
{"gene symbol": "ANKZF1", "two-siRNA summed score (-2 to +2)": 0, "mean protection from cisplatin (shift in death) (%)": -4.3, "activity call": "inactive"}
{"gene symbol": "YAF2", "two-siRNA summed score (-2 to +2)": 0, "mean protection from cisplatin (shift in death) (%)": -11.1, "activity call": "inactive"}
{"gene symbol": "LOC392238", "two-siRNA summed score (-2 to +2)": 0, "mean protection from cisplatin (shift in death) (%)": 13.6, "activity call": "inactive"}
{"gene symbol": "NR0B2", "two-siRNA summed score (-2 to +2)": 0, "mean protection from cisplatin (shift in death) (%)": -12.6, "activity call": "inactive"}
{"gene symbol": "CPXM1", "two-siRNA summed score (-2 to +2)": 0, "mean protection from cisplatin (shift in death) (%)": 15.2, "activity call": "inactive"}
{"gene symbol": "BAP1", "two-siRNA summed score (-2 to +2)": 0, "mean protection from cisplatin (shift in death) (%)": 5, "activity call": "inactive"}
{"gene symbol": "LOC389071", "two-siRNA summed score (-2 to +2)": 0, "mean protection from cisplatin (shift in death) (%)": 5.1, "activity call": "inactive"}
{"gene symbol": "TMEM72", "two-siRNA summed score (-2 to +2)": 0, "mean protection from cisplatin (shift in death) (%)": 12.3, "activity call": "inactive"}
{"gene symbol": "LOC387946", "two-siRNA summed score (-2 to +2)": 0, "mean protection from cisplatin (shift in death) (%)": 7.8, "activity call": "inactive"}
{"gene symbol": "SCN3B", "two-siRNA summed score (-2 to +2)": 0, "mean protection from cisplatin (shift in death) (%)": 3.8, "activity call": "inactive"}
{"gene symbol": "SCD", "two-siRNA summed score (-2 to +2)": 1, "mean protection from cisplatin (shift in death) (%)": 12, "activity call": "inactive"}
{"gene symbol": "LOC440403", "two-siRNA summed score (-2 to +2)": 0, "mean protection from cisplatin (shift in death) (%)": 4.8, "activity call": "inactive"}
